Experimental data published in article PMC2740868.
No constants are given. Whether binding was seen depends on the method and setting. Binding seen in cells or lysates may run through a third protein. Some binding calls cover weakened binding; strength is not graded here. For part of these data: Where a sequence is shown, tags or fusion partners need not be part of it. One block for each binder: values may come before it.

What was measured:
[1] = target: T1, endogenous Smad4 (human (endogenous in HaCaT, HCC1937, HCCBRCA1 and MCF-7)), Q13485; assay: co-IP; endogenous, MCF-7 cells transfected with siGL2 or siBRCA1, starved 3 hours, 1 ng/ml TGF-β1 for 45 min; IP anti-Smad4, blot anti-Smad3; conditions: remark: other sources report otherwise
T1 chain: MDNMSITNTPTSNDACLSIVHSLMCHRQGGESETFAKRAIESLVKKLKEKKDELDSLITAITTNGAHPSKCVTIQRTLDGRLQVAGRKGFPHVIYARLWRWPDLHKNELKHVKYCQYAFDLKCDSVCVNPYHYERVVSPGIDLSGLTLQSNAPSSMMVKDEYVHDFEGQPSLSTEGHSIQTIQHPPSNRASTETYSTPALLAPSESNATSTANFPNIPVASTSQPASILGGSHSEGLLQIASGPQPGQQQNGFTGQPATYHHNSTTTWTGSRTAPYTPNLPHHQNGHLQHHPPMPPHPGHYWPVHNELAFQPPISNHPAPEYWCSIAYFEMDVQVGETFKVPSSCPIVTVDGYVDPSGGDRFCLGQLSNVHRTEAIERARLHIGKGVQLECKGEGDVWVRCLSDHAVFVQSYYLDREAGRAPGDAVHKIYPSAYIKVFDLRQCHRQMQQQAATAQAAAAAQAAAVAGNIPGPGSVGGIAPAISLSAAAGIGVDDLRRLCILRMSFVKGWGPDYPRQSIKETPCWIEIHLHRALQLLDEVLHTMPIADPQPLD

Flag-Smad3, P84022 = assay: co-IP; HEK293T cells co-transfected with Flag-Smad3, HA-Smad4 and caTβRII, with or without 200 µM H2O2 for 2 hours; immunoprecipitation and Western blotting as indicated, membrane re-probed with anti-Flag; conditions: remark: other sources report otherwise
[2] = target: T2, endogenous Smad3 (human (endogenous in MCF-7, HaCaT, HCC1937 and HCCBRCA1)), P84022; assay: co-IP; endogenous, HCC1937 cells (BRCA1-mutated), 2 ng/ml TGF-β1 and 100, 200 and 300 µM H2O2 for 1 hour as indicated; IP anti-Smad3 polyclonal, blot anti-Smad4; conditions: remark: other sources report otherwise
[3] = target: T2, endogenous Smad3 (human (endogenous in …)); assay: co-IP; endogenous, HaCaT cells, TGF-β1 (2 ng/ml) and H2O2 (100 µM) for 1 hour as indicated; IP anti-Smad3 polyclonal, blot anti-BRCA1 or anti-Smad4; HKMG buffer; conditions: remark: other sources report otherwise
[4] = target: T2, endogenous Smad3 (human (endogenous in …)); assay: co-IP; HCCBRCA1 cells (wild type BRCA1-reconstituted HCC1937), TGF-β1 (2 ng/ml) and H2O2 (100-300 µM) for 1 hour as indicated; IP anti-Smad3 polyclonal, blot anti-BRCA1 or anti-Smad4; HKMG buffer; conditions: remark: other sources report otherwise
Flag-Smad3 = Flag-Smad3 (UniProt P84022); assay: co-IP; HEK293T cells co-transfected with HA-BRCA1 constructs and Flag-Smad3; total cell lysates, immunoprecipitation and Western blotting with anti-Flag and anti-HA monoclonal antibodies

binding (Flag-Smad3, P84022): binds
B2: HA-Smad4, Q13485 1-552 (protein)
chain: MDNMSITNTPTSNDACLSIVHSLMCHRQGGESETFAKRAIESLVKKLKEKKDELDSLITAITTNGAHPSKCVTIQRTLDGRLQVAGRKGFPHVIYARLWRWPDLHKNELKHVKYCQYAFDLKCDSVCVNPYHYERVVSPGIDLSGLTLQSNAPSSMMVKDEYVHDFEGQPSLSTEGHSIQTIQHPPSNRASTETYSTPALLAPSESNATSTANFPNIPVASTSQPASILGGSHSEGLLQIASGPQPGQQQNGFTGQPATYHHNSTTTWTGSRTAPYTPNLPHHQNGHLQHHPPMPPHPGHYWPVHNELAFQPPISNHPAPEYWCSIAYFEMDVQVGETFKVPSSCPIVTVDGYVDPSGGDRFCLGQLSNVHRTEAIERARLHIGKGVQLECKGEGDVWVRCLSDHAVFVQSYYLDREAGRAPGDAVHKIYPSAYIKVFDLRQCHRQMQQQAATAQAAAAAQAAAVAGNIPGPGSVGGIAPAISLSAAAGIGVDDLRRLCILRMSFVKGWGPDYPRQSIKETPCWIEIHLHRALQLLDEVLHTMPIADPQPLD

binding [2]: binds
binding [3]: binds
binding [4]: binds
B3: endogenous Smad4, Q13485 1-552 (protein)
chain: MDNMSITNTPTSNDACLSIVHSLMCHRQGGESETFAKRAIESLVKKLKEKKDELDSLITAITTNGAHPSKCVTIQRTLDGRLQVAGRKGFPHVIYARLWRWPDLHKNELKHVKYCQYAFDLKCDSVCVNPYHYERVVSPGIDLSGLTLQSNAPSSMMVKDEYVHDFEGQPSLSTEGHSIQTIQHPPSNRASTETYSTPALLAPSESNATSTANFPNIPVASTSQPASILGGSHSEGLLQIASGPQPGQQQNGFTGQPATYHHNSTTTWTGSRTAPYTPNLPHHQNGHLQHHPPMPPHPGHYWPVHNELAFQPPISNHPAPEYWCSIAYFEMDVQVGETFKVPSSCPIVTVDGYVDPSGGDRFCLGQLSNVHRTEAIERARLHIGKGVQLECKGEGDVWVRCLSDHAVFVQSYYLDREAGRAPGDAVHKIYPSAYIKVFDLRQCHRQMQQQAATAQAAAAAQAAAVAGNIPGPGSVGGIAPAISLSAAAGIGVDDLRRLCILRMSFVKGWGPDYPRQSIKETPCWIEIHLHRALQLLDEVLHTMPIADPQPLD

More lines, now with the values behind:

B1: endogenous Smad3, P84022 1-425 (protein)
chain: MSSILPFTPPIVKRLLGWKKGEQNGQEEKWCEKAVKSLVKKLKKTGQLDELEKAITTQNVNTKCITIPRSLDGRLQVSHRKGLPHVIYCRLWRWPDLHSHHELRAMELCEFAFNMKKDEVCVNPYHYQRVETPVLPPVLVPRHTEIPAEFPPLDDYSHSIPENTNFPAGIEPQSNIPETPPPGYLSEDGETSDHQMNHSMDAGSPNLSPNPMSPAHNNLDLQPVTYCEPAFWCSISYYELNQRVGETFHASQPSMTVDGFTDPSNSERFCLGLLSNVNRNAAVELTRRHIGRGVRLYYIGGEVFAECLSDSAIFVQSPNCNQRYGWHPATVCKIPPGCNLKIFNNQEFAALLAQSVNQGFEAVYQLTRMCTIRMSFVKGWGAEYRRQTVTSTPCWIELHLNGPLQWLDKVLTQMGSPSIRCSSVS
binding [1]: binds

B4: HA-BRCA1 (298–436aa) (domain or fragment, UniProt P38398 298-436)
chain: NVEKAEFCNKSKQPGLARSQHNRWAGSKETCNDRRTPSTEKKVDLNADPLCERKEWNKQKLPCSENPRDTEDVPWITLNSSIQKVNEWFSRSDELLGSDDSHDGESESNAKVADVLDVLNEVDEYSGSSEKIDLLASDP
binding (Flag-Smad3): binds
